{
  "source": "paper PMC11000389",
  "note": "The exact form of at least one protein or probe is not confirmed. A negative result means that nothing was seen under these conditions. Protein sequences can lack the tags named with them.",
  "data": [
    {"molecular_target": "T1, MtrA (UniProt Q82DB9)", "T1 sequence (looked up, limits assumed)": "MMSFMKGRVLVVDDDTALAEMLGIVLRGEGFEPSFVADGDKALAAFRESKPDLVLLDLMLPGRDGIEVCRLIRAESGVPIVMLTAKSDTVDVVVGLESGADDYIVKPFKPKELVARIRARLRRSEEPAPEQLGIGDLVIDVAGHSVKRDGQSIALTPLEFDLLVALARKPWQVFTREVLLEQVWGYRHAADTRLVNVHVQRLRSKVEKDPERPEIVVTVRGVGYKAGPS", "assay": "EMSA", "details": "3 or 6 ug MtrA, 50 ng probe; EMSA kit buffer (composition, pH, temperature not given), 20 uL, 50 ng Cy5 probe, 3-6 ug MtrA, 6% native PAGE; recombinant protein; label: Cy5 5' end; probe letters rebuilt from the primers and the genome", "values": [
      {"sequence": "AGCCAGTGGCGATAAGAGACCAGTCGCGTCGGAGCCTCCGCGGCCGGATGGAAACGCCGGAGCCAGTTGTCGCTCGTCTGAACACTGGTCATCGCGCTGCAGCCTCTGCCTTTCGGAGTGGATCAACTGGATCAACTTGGTGTCCACGAAGCTGTCAGCCGGACCCGCACCGGACAACCCCCATCAGCCCCTATGCCCGGCGACGGCAGCCCGTGTCCCACCATCGAGCGGCTGCCTGTATCGCATGATCGCCGGTAGCCTCCTGGGCCTCAGGTCAGGGTCCTGCTCGAGCGCCCGCCGCTCACGCACGAGGGAGTGTCGACTGATCGATGATGCCTACGACGGCCGAGCCCGCACCCGTCCAGTCCGACAGCAACAGCAGTGCTCCCCTCCACACCGAACTGGGCAGGACCCGGCTGAGGATCAGCCGACTGGCGCTCGGAACGGTCCTTATCGCCACTGGCT (double strand) [aveBVIII upstream region (PaveBVIII)]", "binding result": "binds"},
      {"sequence": "AGCCAGTGGCGATAAGAAGGGCGCTCGAAGGCCCGTCTGTTCGGACGGCGGCCGGGTTCGCCACGCGGCTGCGAGAGCTGATGCTGGTGCAGTGGCCGTTCGGCGGCGAGCGGTATCTGGCCGCCGCGGCCCGGGTGGTCGCCCAACCCGTGGGCAGTGCACTGATGTTGTCGCTGACCGCTCTGCTCTGCGCATATCTGCTCACGACCCTGCGTAGCAGGGTCCGATGACGACCGTCCGAGGGCTTCCGGTCCTGTCGTGAGCGCAACTTCCCGGAGAACGCCCATTTCTTTCCGATAAGGCGTCAATTGCGACGGGGTGAGCGATCACCCTTTCGTGTGCTTTTCACCAAAGACCTCAAGGGCGTTGGAAGCGACGCCGACAAAGGATCCGTGAGTACCCTTGCGCACACCATGATGACCGCCGCCCGCTCCGCCGACTCCGGCCTGACCGGACCGGGCGAACTCGACCGCTACCCCTACGCCGAGGCCTCTGCCGCCGACCGCGTCGGCATTCCCGCGCTTATCGCCACTGGCT (double strand) [whiH promoter]", "binding result": "no binding"},
      {"sequence": "AGCCAGTGGCGATAAGGGGAAAGAAGGACTCGGGGTCGGTCTGGGCGCACAGTGCGCGCTCCTGCCAGCCGAGTTCCTCGTCCGCGTCGTCGACCAGCAGTTGCTGCACCAGCTCGGTCATGTGCGCCCCTCGTCTGTCTTCGCGTCCCCGTGATGCTGTCGTTACCGATTTCGGCTGAACGACACGAGTGAAATTACAAGTGTGCCGATCCGCGCCAGTCAAGCCGAGATCTGCTATTGAGCCCCTTATTCACTCTGCGGAACCAAGGCTATGCGGAAAGTGTTCAAATCGGGATAAACGCCTACAGCCATCGGTGACCACAAGAGCCCAGGTCGGACCTCCAGCCCTCCACAGGGAAGGACGCCCGTATGTTCGATCTCGTTCCGACGCGAACATCGAAGCGAACCGGATCACATTCGGATCACGGAGCCGCCACGAGGTTTGCGCGCCCGGTTGTGCGCCATGTGTCCCCGGCGGCTCCTGAACAAACCTTTCGCCAGCGAGATGAACCGGATGAGGTGAAACACCTCTCACATACCGGACACCAAGTTGACAGCGGAAGTGTGAACCGATGTCCTTGTGGGCATGCTCGCGAACTTGGCACTCACCTCGACCCGCACCGCCGGGTCCCACGGTGCTGCCCGCGCTCGCTGTAGCTGTTGCTGTTCCAGCTGTTGAGCCGTACCGCGCTCCGGCTGCCTCGCCGCCACTGAGGCGAATGACCGCCCCCACCCGGGCACCCCTCCCCGTCCGCAACCCGGACGGTCCTGGTCCGCGACACCCCAGCACCCCCACGCCGAGGAACCACCGCACCCCTTATCGCCACTGGCT (double strand) [whiB promoter]", "binding result": "binds"},
      {"sequence": "AGCCAGTGGCGATAAGCATTCCGCCCTCGGCGACGAGCAGTTTCACCGTGCCGGCCGCGCATTCGGTAAGGGCCAGCCGCAGCGCGCGGAACTGTGTTTCCCGGTCGACGAGCGTGAGTTCTTCTGGTTTCCGAGGGGGGTGCAGACAGGAAACTCCCTGCATGATGTTCTTATTTCTCCTTTTTCCAAGAAAGCGTGTCTCGGGGATTTCGATTGCTTGAGCAAAAGCGGTCGCGGCCGTGCGGGCTGGGTTGATCAGCATCAGAGGTGATGGTCAGTGTTATGAATTTGCCCTGGTGGGCGGGGTAGTGTCAAGGTCGCTGACTTTGATGATTAACTGATGATCGTGGGATTCTGAGGTGGTGTTCGCGAGGGTGAAGGAGTTCCTTCCTGGAGACATCCGTGCCCCGGATGGCGGTCCACAATTCACGAGTGGGATGCGCAGTGGGTCGCGTGCTGCAACACCGAATGGAATACCGGGTGACCGGTATGTACTTATCGCCACTGGCT (double strand) [aveR upstream region (PaveR)]", "binding result": "binds"},
      {"sequence": "GTGGCGATAAGGTGACGTCGCCCCGCCTGGGTAACGACACGCCATCCCCACAATCGCGATCGGCTCCTGCTCACGCTCGACCACCTCGTACAGGCGACGGCGAGTGCGGTCCAGGTCCGCAGTGACGCGCTTGAGGTATTCCAGGAGCTTCGCTTCATTCGCCAATTGCATTCACGTCCTAGCAGGGCCCAGCGGATACGGGCGGAGTGGCAGGCGTCCGGTTCAGGACAGGCCGAGGTCGTTGTCAATGAATTTGAAAATCTCAGCCTCTGTTGCCGATGTGAACTTCTCGTCGTCATCAGCGCTTTCGGCTGTCGGATGCTGGGGTGCGTTCCACCTCAACATGAGTGACTTCTTATCGCCACTGGCT (double strand) [aveA1-aveA2 intergenic region]", "binding result": "binds"},
      {"sequence": "AGCCAGTGGCGATAAGCTACTCCTTGATGTTCCAGGGCATCGCGAAGCCGAACTTCCAGACGTAGACGGCCATAAGAGCGGCGATGATCACGAGCCCGACGGTGGTGAGGATGATGTTGCGGCGCCGCACCCTGGGGTCGAGCGCACGCTGGGTCGCCTCGGTGACCTTGCGCTTCGTCCAGCGGAGCACCAGCTGGGCCCAGACGAACTCCGTCGCCCAGATCGCCATGCCTCCGAAGATCACCAGCCAGCCCGGACCGGGCAGCGGAAGCATGATCACGCCCGCGACGACGACCGCGAGCCCCACGATGAAAACGCCCACCTGCCAGCTCAGGTGCAGCGCGCGACGCGCCTTGATGAATTTCGGCGCCCTCGAGCCGAGCCCCCGCTCGGCGTTCGTTTCGTCAGCGGCCACGGCGACCTCGCCCGGCTCGTCACTCCCCGTATTCATACAACAAACCCTACCGGAGGGAAACCAGTCACCGGAATGGTCGTACCTCGCGAACGATCTCTCGGCCGGATGAGGTACCTAAAGACACGCAAAACACTCAGAGGGGTTTACAACGGCACCGTAGGTGGCATGTCGATTTCGCCGACGTGCGAATCCCCGAGCGCACACTGAGCGAAAGGCCCTGGCGCTTATGAACACCACGGTCAGCTGCGAGCTGCACCTGCGCCTCGTTGTGTCGAGCGAGTCCCTTATCGCCACTGGCT (double strand) [ssgC promoter]", "binding result": "binds"}
    ]}
  ]
}
